Assay [1] has as its target Frey1-3xFLAG TMD mutant (TMD mut) (murine) (UniProt Q8CF31). Briefly: co-IP; competitive co-immunoprecipitation pulling on Frey1-3xFLAG or its TMD mutant from transiently transfected HEK cells, with or without co-expressed HA-HO-1 as model substrate; SPPL2c blotted.
Assay [2] has the same target. Briefly: co-IP; anti-FLAG M2 and Protein G agarose from 0.5% CHAPSO lysates (1 mg in 500 µl, overnight, 4 °C) of transiently transfected HEK293T cells; four washes with CHAPSO buffer; eluates blotted; co-precipitated SPPL2c divided by the precipitated Frey1 or PLN variant and normalised to wild-type Frey1.

Amino acid sequences for entries named in this document (tags omitted). A change or cut given only in a name is not applied to a line headed by its entry.
UniProt Q8CF31: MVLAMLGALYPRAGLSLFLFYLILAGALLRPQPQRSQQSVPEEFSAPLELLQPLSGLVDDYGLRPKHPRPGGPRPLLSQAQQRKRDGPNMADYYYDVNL

These are yes or no findings as the source states them, for the method shown. In cells and extracts the contact can be indirect. Binding can be weak; no strength is given. Tags and fused reporters may be left off the sequences shown.

B1: Signal Peptide Peptidase-like 2c, C-terminally myc-tagged (SPPL2c-myc) (enzyme, UniProt A2A6C4 29-690)
chain: EYGLVRVVSKNWSKDYCVLYSSDYVNLPRDLHHAPLLSLHDGTKTPWCPDEDSFHQAQDSSPRQRPLHQTTTMVTRGNCSFYAKGWLAQDQGAQGLLIVSRARNQQCSDTISKPQDPSKPWPALTIPVAVLRYTDMLDIVSHTYGDTDVRVAMFAPLEPVTDYNMAIIFILAVGTVAAGGYWAGLMEANKLQRRQAQRGGGLGGHNQQQTVAAERSQRAWEDDDFEDAPMDFTPAMTGAVVTMSCSIMILLYFFYDCFVYVMIGIFSLGASTGLYSCLAPILCHLPLWRYQWVLPGQRVSVTWPLLLLAGLCAMVTVLWVIHRNEDHWAWLLQDTLGVAYCLFVLRRVRLPTFKNCTLFLLALLAFDVFFVFITPLFTKTGESIMVEVASGPADSSSHERLPMVLKVPRLSFSALTLCNQPFSILGFGDIVVPGFLVAYCHRFDMQVQSRQVYYMACTVAYAVGLLVTFVAMILMQMGQPALLYLVSSTLLTSLAVATCRQEFTLFWTGQGRAKIPAEPVAQPCIASAVGSKMKLEDAKDSRTTNRFEQAVDGESGDLESSTGDDMAEMVTLSEDEATSPEGHSESSEGWSDTNLDPNELPSGSPMALEAMLIPLIQPIPHPSELGHIRTQSRVHDSSLPWMGLHKRKGLKVKKSMSAQAPL
In the case of B1, the binding entry in assay [1] and in assay [2] was “binds” each time.

The record behind these values is PMC10234869.
